Results from paper PMC10923876.
These are yes or no findings as the source states them, for the method shown. Binding seen in cells or lysates may run through a third protein. Some entries that bind do so weakly or less than the wild type.

Amino acid sequences for entries named in this document (tags omitted). A change or cut given only in a name is not applied to a line headed by its entry. Chains listed by the source or under a name are the forms on record and can include a tag or linker.
UniProt Q9UGL1: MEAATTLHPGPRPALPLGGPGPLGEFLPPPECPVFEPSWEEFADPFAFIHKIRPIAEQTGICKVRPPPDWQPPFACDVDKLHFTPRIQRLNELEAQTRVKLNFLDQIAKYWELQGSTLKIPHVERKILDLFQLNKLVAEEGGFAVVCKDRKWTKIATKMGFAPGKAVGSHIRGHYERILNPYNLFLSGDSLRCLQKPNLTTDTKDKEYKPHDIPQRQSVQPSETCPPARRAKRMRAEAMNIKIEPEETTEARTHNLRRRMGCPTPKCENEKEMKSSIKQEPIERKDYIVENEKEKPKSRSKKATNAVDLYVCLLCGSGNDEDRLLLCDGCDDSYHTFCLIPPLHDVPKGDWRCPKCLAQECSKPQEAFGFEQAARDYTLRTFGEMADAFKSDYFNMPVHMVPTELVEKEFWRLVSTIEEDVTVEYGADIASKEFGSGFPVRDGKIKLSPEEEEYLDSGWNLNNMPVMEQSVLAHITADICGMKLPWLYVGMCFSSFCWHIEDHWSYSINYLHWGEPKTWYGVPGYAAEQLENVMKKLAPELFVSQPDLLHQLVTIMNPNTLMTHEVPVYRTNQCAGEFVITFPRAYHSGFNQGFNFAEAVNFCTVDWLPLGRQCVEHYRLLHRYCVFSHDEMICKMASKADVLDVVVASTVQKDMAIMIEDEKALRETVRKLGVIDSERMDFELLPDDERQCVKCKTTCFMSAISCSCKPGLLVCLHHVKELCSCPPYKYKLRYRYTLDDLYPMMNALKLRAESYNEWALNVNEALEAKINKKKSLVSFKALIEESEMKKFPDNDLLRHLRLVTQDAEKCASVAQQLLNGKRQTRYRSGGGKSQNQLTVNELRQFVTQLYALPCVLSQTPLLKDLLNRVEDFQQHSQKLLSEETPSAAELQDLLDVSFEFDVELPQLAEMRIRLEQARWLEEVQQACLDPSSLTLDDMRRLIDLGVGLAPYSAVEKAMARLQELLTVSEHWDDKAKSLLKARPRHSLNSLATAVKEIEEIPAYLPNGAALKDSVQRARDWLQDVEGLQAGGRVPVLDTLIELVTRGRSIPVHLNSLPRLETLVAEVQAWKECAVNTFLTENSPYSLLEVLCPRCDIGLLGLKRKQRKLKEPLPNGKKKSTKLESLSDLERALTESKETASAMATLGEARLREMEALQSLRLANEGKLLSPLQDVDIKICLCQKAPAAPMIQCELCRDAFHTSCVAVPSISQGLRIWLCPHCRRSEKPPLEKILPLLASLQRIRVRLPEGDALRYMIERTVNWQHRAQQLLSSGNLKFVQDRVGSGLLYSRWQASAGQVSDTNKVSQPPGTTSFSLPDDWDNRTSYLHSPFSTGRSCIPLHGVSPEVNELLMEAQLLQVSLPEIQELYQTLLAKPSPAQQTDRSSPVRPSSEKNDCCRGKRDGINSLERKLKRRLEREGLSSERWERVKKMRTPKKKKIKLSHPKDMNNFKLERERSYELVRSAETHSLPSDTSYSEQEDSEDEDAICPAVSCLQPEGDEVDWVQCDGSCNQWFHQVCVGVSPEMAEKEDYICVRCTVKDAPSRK
KDM5B-AA mutant (Lys769 and Lys773 mutated to alanine), expressed in HEK293T cells (Q9UGL1, form named): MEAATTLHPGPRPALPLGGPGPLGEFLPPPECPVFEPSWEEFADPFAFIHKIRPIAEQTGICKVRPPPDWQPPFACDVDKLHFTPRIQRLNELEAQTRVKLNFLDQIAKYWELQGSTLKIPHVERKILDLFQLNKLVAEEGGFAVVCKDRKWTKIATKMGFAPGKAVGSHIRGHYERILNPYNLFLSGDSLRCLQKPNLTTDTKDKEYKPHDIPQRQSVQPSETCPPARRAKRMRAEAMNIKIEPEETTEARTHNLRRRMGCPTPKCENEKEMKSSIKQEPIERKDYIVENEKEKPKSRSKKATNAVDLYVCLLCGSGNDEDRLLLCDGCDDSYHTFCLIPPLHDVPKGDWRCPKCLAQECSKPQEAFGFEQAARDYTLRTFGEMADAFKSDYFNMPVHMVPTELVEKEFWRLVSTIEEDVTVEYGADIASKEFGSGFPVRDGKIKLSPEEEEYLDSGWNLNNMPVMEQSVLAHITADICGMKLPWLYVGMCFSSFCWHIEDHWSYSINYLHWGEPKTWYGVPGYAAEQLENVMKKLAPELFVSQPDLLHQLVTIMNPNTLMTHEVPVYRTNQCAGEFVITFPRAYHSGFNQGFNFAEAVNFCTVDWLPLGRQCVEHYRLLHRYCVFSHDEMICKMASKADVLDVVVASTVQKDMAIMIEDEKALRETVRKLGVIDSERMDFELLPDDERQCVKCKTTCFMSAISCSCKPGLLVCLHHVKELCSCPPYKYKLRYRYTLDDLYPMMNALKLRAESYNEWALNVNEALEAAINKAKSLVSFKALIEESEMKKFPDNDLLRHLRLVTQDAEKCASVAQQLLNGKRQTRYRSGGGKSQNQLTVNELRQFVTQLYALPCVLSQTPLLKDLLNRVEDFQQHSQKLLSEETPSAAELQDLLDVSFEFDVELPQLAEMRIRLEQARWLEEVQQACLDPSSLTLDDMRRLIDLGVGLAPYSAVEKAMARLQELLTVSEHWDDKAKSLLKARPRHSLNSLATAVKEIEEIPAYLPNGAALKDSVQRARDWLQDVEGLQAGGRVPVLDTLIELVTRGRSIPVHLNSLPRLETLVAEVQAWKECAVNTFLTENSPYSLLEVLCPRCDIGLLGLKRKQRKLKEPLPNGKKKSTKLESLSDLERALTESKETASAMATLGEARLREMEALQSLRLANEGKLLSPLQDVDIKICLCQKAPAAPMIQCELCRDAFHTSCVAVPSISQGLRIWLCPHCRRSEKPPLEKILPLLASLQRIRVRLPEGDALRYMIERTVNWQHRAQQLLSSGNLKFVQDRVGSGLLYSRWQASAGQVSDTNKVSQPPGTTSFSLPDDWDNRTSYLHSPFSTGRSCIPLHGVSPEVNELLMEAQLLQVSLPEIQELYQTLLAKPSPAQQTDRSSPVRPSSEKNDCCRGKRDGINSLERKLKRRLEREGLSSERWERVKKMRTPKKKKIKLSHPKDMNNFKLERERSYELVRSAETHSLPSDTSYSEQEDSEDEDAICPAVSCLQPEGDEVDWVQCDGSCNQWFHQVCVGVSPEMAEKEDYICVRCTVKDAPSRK
UniProt Q93009: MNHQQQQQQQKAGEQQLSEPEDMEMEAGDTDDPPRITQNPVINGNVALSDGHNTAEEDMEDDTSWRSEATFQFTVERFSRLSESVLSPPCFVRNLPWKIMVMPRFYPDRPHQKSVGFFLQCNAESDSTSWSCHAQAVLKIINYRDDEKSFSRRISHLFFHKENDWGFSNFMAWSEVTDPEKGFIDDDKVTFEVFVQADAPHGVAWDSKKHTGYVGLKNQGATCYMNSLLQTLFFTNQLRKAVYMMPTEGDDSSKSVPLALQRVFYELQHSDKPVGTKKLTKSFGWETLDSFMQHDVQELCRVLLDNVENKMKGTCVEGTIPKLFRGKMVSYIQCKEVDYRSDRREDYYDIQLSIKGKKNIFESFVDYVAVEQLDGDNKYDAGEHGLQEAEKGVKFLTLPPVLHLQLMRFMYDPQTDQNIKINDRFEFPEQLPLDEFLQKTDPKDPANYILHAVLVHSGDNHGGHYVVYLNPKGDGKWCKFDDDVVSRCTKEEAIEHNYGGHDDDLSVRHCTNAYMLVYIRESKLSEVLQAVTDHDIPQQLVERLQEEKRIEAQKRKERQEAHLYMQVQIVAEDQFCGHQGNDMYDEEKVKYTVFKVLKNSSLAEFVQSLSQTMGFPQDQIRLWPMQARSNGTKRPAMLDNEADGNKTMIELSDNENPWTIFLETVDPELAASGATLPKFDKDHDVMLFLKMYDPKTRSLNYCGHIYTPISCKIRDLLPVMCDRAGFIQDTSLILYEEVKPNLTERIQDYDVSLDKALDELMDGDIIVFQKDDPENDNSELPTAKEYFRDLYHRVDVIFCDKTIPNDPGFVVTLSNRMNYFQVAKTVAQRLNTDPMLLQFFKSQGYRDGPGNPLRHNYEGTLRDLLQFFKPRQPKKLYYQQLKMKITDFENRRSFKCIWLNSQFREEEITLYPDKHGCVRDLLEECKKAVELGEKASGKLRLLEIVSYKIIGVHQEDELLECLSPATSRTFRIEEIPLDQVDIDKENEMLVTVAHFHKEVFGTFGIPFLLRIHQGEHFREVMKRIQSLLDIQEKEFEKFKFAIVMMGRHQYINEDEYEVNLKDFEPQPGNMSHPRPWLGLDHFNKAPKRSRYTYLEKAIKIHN

Tests used:
[1] = molecular target: wild-type KDM5B (KDM5B-WT), expressed in HEK293T cells (UniProt Q9UGL1); assay: co-IP; HEK293T cells transfected with the indicated plasmids, harvested 48 h after transfection; blotted with the indicated antibodies
[2] = molecular target: KDM5B-AA mutant (Lys769 and Lys773 mutated to alanine), expressed in HEK293T cells (UniProt Q9UGL1); assay: as above
GST-KDM5B = GST-KDM5B (UniProt Q9UGL1); assay: pull-down; GST, GST-KDM5B or GST-CBX7 pulldown from HNE1 cells; Western blot for USP7 and KDM5B; silver staining of the GST protein input; only the target purified
[3] = molecular target: lysine-specific demethylase 5B (KDM5B), endogenous (human (endogenous in HNE1 and CNE2)) (UniProt Q9UGL1); assay: co-IP; endogenous proteins; HNE1 and CNE2 cells harvested and immunoprecipitated with IgG and USP7 or KDM5B antibodies

## USP7 in HEK293T cells (co-IP of Fig. 6e) (from UniProt Q93009 1-1102) (enzyme)
[1]
  binding: binds
[2]
  binding: no binding

## deubiquitinase USP7, endogenous (from UniProt Q93009 1-1102) (enzyme)
GST-KDM5B
  binding: binds
[3]
  binding: binds
